Measurements taken from the supplement of paper PMC11732987, “Enantioselective OTUD7B fragment discovery through chemoproteomics screening and high-throughput optimisation” (Communications Chemistry, 2025).
The other results are listed elsewhere or left out. The data scatter; read single values as rough.

Amino acid sequences for entries named in this document (tags omitted). A change or cut given only in a name is not applied to a line headed by its entry. Residues count along the entry.
UniProt Q66K64: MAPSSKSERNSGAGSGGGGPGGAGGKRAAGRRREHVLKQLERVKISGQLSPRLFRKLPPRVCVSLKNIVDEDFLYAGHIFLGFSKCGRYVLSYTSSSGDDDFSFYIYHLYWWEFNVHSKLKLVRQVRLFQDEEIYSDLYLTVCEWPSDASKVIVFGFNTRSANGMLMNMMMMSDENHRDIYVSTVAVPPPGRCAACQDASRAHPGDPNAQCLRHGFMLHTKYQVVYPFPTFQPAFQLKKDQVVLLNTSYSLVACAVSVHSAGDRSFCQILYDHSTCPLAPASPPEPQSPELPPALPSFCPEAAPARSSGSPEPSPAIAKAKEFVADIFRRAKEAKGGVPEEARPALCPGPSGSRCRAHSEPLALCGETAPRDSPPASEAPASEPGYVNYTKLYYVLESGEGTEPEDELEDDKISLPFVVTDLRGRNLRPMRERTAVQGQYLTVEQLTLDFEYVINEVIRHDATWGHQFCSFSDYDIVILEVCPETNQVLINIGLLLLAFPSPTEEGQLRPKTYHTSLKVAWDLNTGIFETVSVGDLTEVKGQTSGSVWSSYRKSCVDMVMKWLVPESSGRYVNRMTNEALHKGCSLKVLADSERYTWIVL
UniProt Q5D0E6: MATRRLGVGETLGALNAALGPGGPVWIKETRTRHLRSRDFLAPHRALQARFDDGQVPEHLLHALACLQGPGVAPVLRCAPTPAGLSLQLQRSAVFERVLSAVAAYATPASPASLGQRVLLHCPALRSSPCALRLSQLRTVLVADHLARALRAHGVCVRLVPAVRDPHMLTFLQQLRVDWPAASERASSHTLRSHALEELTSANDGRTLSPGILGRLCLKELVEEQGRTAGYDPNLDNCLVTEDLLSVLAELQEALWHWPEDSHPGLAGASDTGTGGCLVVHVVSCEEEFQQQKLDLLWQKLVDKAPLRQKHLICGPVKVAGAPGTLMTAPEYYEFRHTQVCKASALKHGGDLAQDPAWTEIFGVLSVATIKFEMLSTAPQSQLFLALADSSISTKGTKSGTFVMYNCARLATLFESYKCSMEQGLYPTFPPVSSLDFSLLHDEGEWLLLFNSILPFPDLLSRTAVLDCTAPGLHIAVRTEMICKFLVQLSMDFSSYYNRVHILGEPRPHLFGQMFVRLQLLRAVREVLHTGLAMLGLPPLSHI
UniProt Q5TDH0, 339-363: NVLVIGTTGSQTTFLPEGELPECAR
UniProt P61962: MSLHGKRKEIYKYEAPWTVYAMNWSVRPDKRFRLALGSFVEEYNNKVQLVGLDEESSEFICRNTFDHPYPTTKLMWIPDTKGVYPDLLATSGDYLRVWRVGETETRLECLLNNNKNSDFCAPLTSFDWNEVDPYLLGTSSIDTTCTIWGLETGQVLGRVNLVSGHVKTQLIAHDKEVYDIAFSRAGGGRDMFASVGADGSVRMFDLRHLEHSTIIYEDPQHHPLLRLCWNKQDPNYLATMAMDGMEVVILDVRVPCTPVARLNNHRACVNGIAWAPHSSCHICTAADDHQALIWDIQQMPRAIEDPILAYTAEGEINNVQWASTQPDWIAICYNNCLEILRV
UniProt P01034: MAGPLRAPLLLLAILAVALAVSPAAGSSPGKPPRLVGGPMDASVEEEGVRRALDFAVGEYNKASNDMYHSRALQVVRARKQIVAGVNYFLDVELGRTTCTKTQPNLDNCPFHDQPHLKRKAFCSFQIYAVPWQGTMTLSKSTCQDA
UniProt Q9H0L4: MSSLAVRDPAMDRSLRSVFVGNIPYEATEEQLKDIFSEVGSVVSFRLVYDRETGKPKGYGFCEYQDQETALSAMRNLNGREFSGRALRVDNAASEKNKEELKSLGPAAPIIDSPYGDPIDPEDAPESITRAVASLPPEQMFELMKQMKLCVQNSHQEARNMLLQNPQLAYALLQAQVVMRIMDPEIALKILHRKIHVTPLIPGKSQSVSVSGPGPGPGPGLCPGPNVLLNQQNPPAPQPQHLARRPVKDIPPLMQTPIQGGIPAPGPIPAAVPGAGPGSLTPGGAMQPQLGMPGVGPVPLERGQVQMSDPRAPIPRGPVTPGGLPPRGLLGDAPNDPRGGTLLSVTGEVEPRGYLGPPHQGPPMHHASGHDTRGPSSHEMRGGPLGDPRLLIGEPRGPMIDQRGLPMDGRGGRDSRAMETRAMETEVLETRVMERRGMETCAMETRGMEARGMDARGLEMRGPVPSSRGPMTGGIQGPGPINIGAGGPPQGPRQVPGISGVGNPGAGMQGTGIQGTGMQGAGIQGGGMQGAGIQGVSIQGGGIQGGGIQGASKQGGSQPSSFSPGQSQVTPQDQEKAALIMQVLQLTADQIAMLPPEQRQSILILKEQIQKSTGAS
UniProt Q68DQ2: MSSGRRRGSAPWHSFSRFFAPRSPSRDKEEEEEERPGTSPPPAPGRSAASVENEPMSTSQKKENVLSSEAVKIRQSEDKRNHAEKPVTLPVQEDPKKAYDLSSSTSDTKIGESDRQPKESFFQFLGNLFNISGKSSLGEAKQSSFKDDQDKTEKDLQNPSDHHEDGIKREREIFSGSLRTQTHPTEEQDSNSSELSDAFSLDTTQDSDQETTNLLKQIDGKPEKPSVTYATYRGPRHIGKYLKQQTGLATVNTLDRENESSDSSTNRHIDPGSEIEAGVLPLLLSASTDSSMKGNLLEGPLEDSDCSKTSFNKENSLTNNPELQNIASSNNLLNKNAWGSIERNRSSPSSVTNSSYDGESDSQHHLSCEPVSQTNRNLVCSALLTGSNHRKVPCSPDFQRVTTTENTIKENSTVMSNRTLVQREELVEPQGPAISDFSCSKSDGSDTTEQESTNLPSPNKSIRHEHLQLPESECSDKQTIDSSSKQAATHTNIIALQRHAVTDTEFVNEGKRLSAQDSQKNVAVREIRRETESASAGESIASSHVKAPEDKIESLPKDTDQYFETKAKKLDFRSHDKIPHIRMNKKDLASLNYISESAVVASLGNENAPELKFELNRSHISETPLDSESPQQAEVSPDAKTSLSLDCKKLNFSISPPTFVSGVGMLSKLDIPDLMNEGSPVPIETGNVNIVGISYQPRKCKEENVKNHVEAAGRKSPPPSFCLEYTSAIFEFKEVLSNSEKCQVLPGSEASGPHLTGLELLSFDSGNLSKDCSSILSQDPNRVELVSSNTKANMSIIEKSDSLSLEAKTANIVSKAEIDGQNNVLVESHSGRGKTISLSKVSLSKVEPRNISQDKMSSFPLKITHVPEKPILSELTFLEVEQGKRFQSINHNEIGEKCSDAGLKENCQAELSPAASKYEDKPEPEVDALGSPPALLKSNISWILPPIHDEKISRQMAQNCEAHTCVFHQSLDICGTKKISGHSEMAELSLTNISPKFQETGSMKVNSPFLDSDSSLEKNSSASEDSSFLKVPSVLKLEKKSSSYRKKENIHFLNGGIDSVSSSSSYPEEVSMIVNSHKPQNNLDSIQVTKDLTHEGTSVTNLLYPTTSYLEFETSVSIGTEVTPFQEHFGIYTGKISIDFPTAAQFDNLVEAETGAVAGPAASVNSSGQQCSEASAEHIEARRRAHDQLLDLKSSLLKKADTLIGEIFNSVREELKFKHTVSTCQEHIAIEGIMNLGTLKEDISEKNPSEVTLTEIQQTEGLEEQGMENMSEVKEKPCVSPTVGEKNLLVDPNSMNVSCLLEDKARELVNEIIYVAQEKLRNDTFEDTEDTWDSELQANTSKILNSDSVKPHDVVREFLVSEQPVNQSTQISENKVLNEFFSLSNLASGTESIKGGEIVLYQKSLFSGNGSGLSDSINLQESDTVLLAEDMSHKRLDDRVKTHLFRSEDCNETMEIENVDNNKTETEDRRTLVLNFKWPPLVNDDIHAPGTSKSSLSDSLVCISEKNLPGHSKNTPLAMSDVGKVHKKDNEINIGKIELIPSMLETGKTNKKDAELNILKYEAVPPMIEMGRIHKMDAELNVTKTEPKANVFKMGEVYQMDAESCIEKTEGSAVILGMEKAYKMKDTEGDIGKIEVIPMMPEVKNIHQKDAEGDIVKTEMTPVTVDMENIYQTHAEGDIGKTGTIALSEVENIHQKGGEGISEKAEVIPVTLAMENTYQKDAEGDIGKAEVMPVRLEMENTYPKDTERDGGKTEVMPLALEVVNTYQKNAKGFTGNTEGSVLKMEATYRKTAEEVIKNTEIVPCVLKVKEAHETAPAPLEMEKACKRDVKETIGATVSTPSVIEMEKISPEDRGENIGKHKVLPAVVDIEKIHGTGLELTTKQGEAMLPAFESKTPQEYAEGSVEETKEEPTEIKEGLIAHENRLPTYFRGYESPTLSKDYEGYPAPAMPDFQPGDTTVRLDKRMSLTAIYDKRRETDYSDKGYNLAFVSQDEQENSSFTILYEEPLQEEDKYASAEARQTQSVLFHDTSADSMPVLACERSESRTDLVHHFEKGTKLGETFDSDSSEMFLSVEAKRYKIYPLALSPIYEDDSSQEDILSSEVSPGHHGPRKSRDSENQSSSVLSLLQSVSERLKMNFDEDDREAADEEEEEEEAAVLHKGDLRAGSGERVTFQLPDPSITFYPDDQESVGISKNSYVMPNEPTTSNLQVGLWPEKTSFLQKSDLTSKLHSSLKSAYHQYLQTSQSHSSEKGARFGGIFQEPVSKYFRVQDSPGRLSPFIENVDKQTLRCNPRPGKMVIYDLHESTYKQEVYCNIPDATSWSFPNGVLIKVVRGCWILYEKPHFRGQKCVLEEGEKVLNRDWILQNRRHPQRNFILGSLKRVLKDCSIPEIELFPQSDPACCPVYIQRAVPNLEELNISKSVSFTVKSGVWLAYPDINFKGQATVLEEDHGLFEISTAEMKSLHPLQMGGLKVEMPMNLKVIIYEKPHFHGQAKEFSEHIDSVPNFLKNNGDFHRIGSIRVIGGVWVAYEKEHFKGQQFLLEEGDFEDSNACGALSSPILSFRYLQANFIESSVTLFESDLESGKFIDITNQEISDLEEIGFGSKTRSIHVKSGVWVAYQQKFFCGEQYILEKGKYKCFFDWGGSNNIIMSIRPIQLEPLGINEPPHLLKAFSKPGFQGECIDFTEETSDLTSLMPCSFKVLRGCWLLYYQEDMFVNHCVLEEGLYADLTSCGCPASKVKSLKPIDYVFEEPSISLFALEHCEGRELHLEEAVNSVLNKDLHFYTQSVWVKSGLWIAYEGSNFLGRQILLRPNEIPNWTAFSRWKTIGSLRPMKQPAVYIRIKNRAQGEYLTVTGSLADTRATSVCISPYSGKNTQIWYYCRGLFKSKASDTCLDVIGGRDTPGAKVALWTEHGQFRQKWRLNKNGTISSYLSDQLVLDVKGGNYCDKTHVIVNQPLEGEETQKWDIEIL
UniProt O95825: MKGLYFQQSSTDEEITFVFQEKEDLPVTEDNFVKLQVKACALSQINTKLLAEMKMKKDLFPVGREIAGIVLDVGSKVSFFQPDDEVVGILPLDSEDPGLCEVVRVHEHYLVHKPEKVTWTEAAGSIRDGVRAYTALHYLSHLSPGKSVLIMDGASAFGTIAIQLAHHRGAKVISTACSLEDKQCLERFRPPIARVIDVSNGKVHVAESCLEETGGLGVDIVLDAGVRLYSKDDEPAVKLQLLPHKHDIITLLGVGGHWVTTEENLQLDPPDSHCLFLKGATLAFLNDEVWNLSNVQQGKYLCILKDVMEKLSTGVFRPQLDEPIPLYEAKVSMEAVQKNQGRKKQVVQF
UniProt Q8IWE4, 58-77: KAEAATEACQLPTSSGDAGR
UniProt P35221: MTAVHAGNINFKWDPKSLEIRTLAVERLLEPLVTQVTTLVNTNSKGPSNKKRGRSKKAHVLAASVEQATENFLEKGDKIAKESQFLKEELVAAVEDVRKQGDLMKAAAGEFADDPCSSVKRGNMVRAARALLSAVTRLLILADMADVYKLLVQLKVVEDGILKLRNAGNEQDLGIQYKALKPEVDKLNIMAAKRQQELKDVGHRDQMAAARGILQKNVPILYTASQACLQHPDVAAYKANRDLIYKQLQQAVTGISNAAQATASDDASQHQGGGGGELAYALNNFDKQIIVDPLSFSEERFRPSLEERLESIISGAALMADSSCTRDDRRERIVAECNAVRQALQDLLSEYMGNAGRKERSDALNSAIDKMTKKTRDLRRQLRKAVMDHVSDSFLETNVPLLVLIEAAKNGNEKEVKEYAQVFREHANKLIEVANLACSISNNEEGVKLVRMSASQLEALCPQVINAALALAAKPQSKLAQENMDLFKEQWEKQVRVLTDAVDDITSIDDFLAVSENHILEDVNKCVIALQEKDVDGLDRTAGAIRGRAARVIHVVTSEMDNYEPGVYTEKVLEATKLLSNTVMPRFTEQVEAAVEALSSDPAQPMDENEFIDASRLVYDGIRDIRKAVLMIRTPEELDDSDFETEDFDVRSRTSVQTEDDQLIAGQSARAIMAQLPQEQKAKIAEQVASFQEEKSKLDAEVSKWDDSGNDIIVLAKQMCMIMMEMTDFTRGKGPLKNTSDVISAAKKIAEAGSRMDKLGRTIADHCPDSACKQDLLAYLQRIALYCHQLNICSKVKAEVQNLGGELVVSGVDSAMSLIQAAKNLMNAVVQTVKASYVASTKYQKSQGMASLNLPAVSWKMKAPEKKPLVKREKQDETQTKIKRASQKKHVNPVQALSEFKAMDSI

Tests used:
[1] = compound: ClCC(=O)N[C@@H]1CCCc2ccccc12; assay: log2 mean competition ratio of IA-DTB cysteine labelling (DMSO/compound) (log2 ratio); higher = stronger cysteine engagement by compound; conditions: treatment time: 4 h, cell line lysate: HEK293T
Method: (§1)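 IA-DTB competitive cysteine chemoproteomics in HEK293T RIPA lysate. Lysates were treated with compound 29 or 30 at 50 or 200 µM for 4 h, then IA-DTB (500 µM, 1 h), trypsin-digested, NeutrAvidin-enriched and analysed by diaPASEF. Competition ratio = intensity DMSO / intensity compound (n=4 treated, n=64 DMSO); binding: mean log2 CR ≥ 1 and p ≤ 0.05 plus QC filters. Target is the cysteine site.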

[2] = compound: ClCC(=O)N[C@H]1CCCc2ccccc12; assay: as above; conditions: treatment time: 4 h, cell line lysate: HEK293T
Method: as §1

Target | log2 mean competition ratio ([1]; 50 µM) | log2 mean competition ratio ([1]; 200 µM) | log2 mean competition ratio ([2]; 50 µM) | log2 mean competition ratio ([2]; 200 µM)
DCAF15 C365 (UniProt Q66K64) | 0.177 | 0.162 | 0.0636 | 0.109
CT45A6;CT45A5;CT45A10;CT45A7;CT45A8;CT45A9;CT45A2;CT45A1;CT45A3 C22;(C22);(C22);(C22);(C22);(C22);(C22);(C22);(C22) | -0.0981 | 0.0495 | -0.159 | 0.0112
CYFIP1 C428 | 0.165 | -0.654 | -0.378 | -0.518
DALRD3 C314 (UniProt Q5D0E6) | 0.174 | -0.122 | 0.0431 | -0.105
DDI2 C361 (UniProt Q5TDH0) | -0.349 | 0.43 | -0.183 | 0.0468
DCP2 C158 (UniProt Q8IU60) | -0.18 | -0.0849 | -0.0755 | -0.207
CUL2 C266 (UniProt Q13617) | -0.0943 | 0.049 | -0.145 | 0.0605
DCAF7 C61 (UniProt P61962) | -0.159 | 0.292 | 0.00355 | 0.0857
CST3 C109 (UniProt P01034) | 0.702 | 0.377 | 0.0485 | -0.0584
CUL4B C637 | 0.275 | -0.248 | 0.187 | -0.423
CSTF2T C441 (UniProt Q9H0L4) | 0.00755 | -0.0928 | 0.163 | -0.117
CRYBG3 C439 (UniProt Q68DQ2) | -0.375 | -0.437 | 0.146 | -0.326
CRYZL1 C177 (UniProt O95825) | 0.0661 | -0.154 | 0.161 | -0.14
DCUN1D3 C66 (UniProt Q8IWE4) | 0.18 | -0.202 | -0.0202 | -0.218
CTNNA1 C337 (UniProt P35221) | -0.163 | -0.0387 | 0.053 | -0.0281

Retrieved one by one from the list above:
Target | log2 mean competition ratio ([1]; 50 µM) | log2 mean competition ratio ([1]; 200 µM) | log2 mean competition ratio ([2]; 50 µM) | log2 mean competition ratio ([2]; 200 µM)
CRYBG3 C439 (UniProt Q68DQ2) | -0.375 | -0.437 | 0.146 | -0.326
CST3 C109 (UniProt P01034) | 0.702 | 0.377 | 0.0485 | -0.0584
